Source: patent US12448655B2, “Antibiotic susceptibility of microorganisms and related methods and systems” (CALIFORNIA INSTITUTE OF TECHNOLOGY, priority 2017, dated 2025)
Some of these results come from one statement about several compounds together.

System: Neisseria gonorrhoeae
Assay: Two-step nuc-aAST on Ng clinical urine samples and their isolates, TNP enhancer (Examples 35, 37)
Format: cell-based
Details: antibiotic-susceptible and intermediate (not-resistant) samples and isolates (Sample #1, #2); 1 μg/mL 30 min, then TNP 3-5 min, DNaseI
Procedure: Clinical sample nuc-aAST. Suspensions of clinical urine samples were prepared as described above. All suspensions were generated, and the ABX-exposure step initiated within 90 min of sample donation. The initial ABX-exposure was performed by incubating 50 μL control and treated samples at 37° C. in PCR tube strips on a BioRad C1000 Thermal Cycler. Treated samples consisted of […] of suspension and 1.25 μL aliquot of PEN or CRO (40 μg/mL). ABX were replaced with NF—H2O in control samples. After 30 min of incubation, samples were vortexed and quickly spun on a benchtop microcentrifuge (Labnet) at 2,000×g for 2-3 sec, and 2.7 μL TNP (100 mM) was added to each sample for the enhancement step. Samples were then immediately vortexed, spun on a benchtop microcentrifuge (Labnet) at 2,000×g for 2-3 sec, and incubated at 37° C. for 3-5 min. After the enhancement step, 20 μL from each sample was extracted by diluting 5× in QuickExtract DNA Extraction Solution (Lucigen) and heating for 6 min at 65° C. followed by 4 min at 98° C. on a BioRad C1000 Thermal Cycler. All sample handling following ABX exposure was performed using a multichannel pipette; qPCR and calculation of percentage accessibility were performed as previously described, with the modification that the qPCR mix included 2 μL of template per 10 μL PCR reaction instead of 1 μL template per 10 μL reaction. […]

For penicillin, the “mean percentage accessibility of DNA” value was > 46%.
